Read-outs that look alike come from different tables or passages of the source. Results are given in words; binding and its absence hold for the method and conditions named. Binding seen in cells or lysates may run through a third protein. Here binding means that the protein was enriched with, or labelled near, the bait; the list need not be complete. For part of these data: Tags and fused reporters may be left off the sequences shown.
Experiments:
Test in all cases: affinity purification with mass spectrometry
[1] = molecular target: wild-type GFP-ATG5 (mouse) (UniProt Q99J83)
[2] = molecular target: wild-type GFP-ATG5 (mouse) (UniProt Q99J83); remark: listed apart in the source
K130R GFP-ATG5 (mouse) = molecular target: T1, K130R GFP-ATG5 (mouse) (UniProt Q99J83)
T1 sequence: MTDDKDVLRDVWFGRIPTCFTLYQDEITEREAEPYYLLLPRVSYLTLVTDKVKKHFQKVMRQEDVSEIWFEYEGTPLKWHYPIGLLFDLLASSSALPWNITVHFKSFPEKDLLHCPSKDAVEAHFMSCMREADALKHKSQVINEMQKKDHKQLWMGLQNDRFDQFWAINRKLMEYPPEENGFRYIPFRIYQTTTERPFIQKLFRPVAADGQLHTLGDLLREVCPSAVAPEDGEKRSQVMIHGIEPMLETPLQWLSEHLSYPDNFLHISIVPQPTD

Measured: binding

B1: TECPR1 (protein, UniProt Q80VP0 1-1166)
chain: MPTSVLWAVDLFGRVYTLSTAGQYWELCKDVQLEFKRVSAATQCCWGIAGDNQVYLYVCSSDVPIRHREEAYENQRWNPMGGFCEKLLPSDRWPWSDVSGLQHRPLDGVALPSPHWEWESDWYVDENFGGEPTEKGGWTYAMDFPATYTRDKKWNSCVRRRKWIRYRRYKSRDSWAKIPSKDDPKELPDPFNDLSVGGWEITEEPVGRLSVWAVSLQGKVWYREDVSHPNPEGSSWSLVETPGEVVQISCGPHDLIWATLWEGQALVREGVCRNNPKGSYWSMVEPPGSENGIMHVSAGVSVVWAITKDRKVWFRRGVNSHNPCGTSWIEMVGEMTMVNVGLNDQVWGISCEDRAVYFRQGVTPSELSGKTWKAIVVGRESDRSHSGSSSSLLSAGCFFGDEVRGSGTESAPSDTDASLEVERQGPEQPLPKEALDNSTNLKGSLSKGHETSGNTDHSTENACLTEGKEKAPETSRSDECRGPASTPAELPWTNIDLKEPKKVSNQPAAGFPETAGLSSLGLFPMGMEEPYGADDHPLWAWVSGGACAVEAGSTLKWFTIQSGLSPSVQTLSLSITPAQTAAWRKQIFQQLTERTKRELESFRHYEQAVEQSVWVKTGALQWWCDWKPHKWVDVRVALEQFTGHDGARDSILFIYYVVHEEKKYLHVFLNEVTVLVPVLNEAKHSFALYTPERTRQRWPVRLAAATEQDMNDWLALLSLSCCESRKVHGRPSPQAIWSVTCKGDIFVSEPSPDLEARERLLPCDQMFWRQMGGHLRIIEANSRGVVWGIGYDHTAWVYTGGYGGGCFQGLASSTSNIYTQSDVKSVYIYENQRWNPVTGYTSRGLPTDRFMWSDVTGLQECTKAGTKPPSLQWTWVSDWYVDFSVPGGTDQEGWQYASDFPASYHGYKTMKDFVRRRCWARKCKLVTSGPWLEVAPITLSDVSIIPESAHADGRGHNVALWAVSDKGDVLCRLGVSELNPAGSSWLHVGTDQPFASVSIGACYQVWAVARDGSAFYRGSVSPSQPAGDCWYHIPSPPKQKLTQVSVGQTSVYALDENGNLWYRAGITPSYPQGSSWEHVSNNVRKVSVGPLDQVWVIANKVQGSHGLSRGTVCRRMGVQPREPKGQGWDYGIGGGWDHISVRANATRVPRNMSRDREARGPGPVCC
binds: all assays above

Source: doi:10.1101/769059
